Measurements taken from PMC12635197, “Discovery of first-in-class inhibitors of the TRF1:TIN2 protein:protein interaction by fragment screening” (Scientific Reports, 2025).
These are yes or no findings as the source states them, for the method shown. Some binding calls cover weakened binding; strength is not graded here. Sequences can lack the tags named with a protein.

T1: (StrepII)2-TEV-tagged TIN2, subunit of recombinant shelterin (UniProt Q9BSI4)
T1 sequence: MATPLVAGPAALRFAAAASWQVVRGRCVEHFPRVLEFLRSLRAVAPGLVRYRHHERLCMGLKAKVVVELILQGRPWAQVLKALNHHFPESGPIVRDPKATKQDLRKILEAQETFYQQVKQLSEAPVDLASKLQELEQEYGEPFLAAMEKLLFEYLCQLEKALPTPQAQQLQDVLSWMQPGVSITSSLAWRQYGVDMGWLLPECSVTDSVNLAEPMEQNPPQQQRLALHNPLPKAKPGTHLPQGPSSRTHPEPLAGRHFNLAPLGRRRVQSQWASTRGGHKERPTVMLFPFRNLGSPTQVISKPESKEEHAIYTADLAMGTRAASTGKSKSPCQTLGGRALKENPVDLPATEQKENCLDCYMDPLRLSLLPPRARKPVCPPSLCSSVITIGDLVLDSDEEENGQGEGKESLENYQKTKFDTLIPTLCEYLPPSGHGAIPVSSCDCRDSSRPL

B1: TRF1 (telomeric repeat-binding factor 1), full length, subunit of recombinant shelterin (natural protein, human, UniProt P54274-1 1-439, looked up)
chain: MAEDVSSAAPSPRGCADGRDADPTEEQMAETERNDEEQFECQELLECQVQVGAPEEEEEEEEDAGLVAEAEAVAAGWMLDFLCLSLCRAFRDGRSEDFRRTRNSAEAIIHGLSSLTACQLRTIYICQFLTRIAAGKTLDAQFENDERITPLESALMIWGSIEKEHDKLHEEIQNLIKIQAIAVCMENGNFKEAEEVFERIFGDPNSHMPFKSKLLMIISQKDTFHSFFQHFSYNHMMEKIKSYVNYVLSEKSSTFLMKAAAKVVESKRTRTITSQDKPSGNDVEMETEANLDTRKSVSDKQSAVTESSEGTVSLLRSHKNLFLSKLQHGTQQQDLNKKERRVGTPQSTKKKKESRRATESRIPVSKSQPVTPEKHRARKRQAWLWEEDKNLRSGVRKYGEGNWSKILLHYKFNNRTSVMLKDRWRTMKKLKLISSDSED
notes: TRF1, gene NM_017489.2, codon-optimised; the UniProt identifier is printed for the TRFH construct of the same protein; Further details of the shelterin construct 'to be reported elsewhere'; also called full-length TRF1
B2: TRF2 (telomeric repeat-binding factor 2), subunit of recombinant shelterin (natural protein, UniProt Q15554-3 1-542, looked up)
chain: MAAGAGTAGPASGPGVVRDPAASQPRKRPGREGGEGARRSDTMAGGGGSSDGSGRAAGRRASRSSGRARRGRHEPGLGGPAERGAGEARLEEAVNRWVLKFYFHEALRAFRGSRYGDFRQIRDIMQALLVRPLGKEHTVSRLLRVMQCLSRIEEGENLDCSFDMEAELTPLESAINVLEMIKTEFTLTEAVVESSRKLVKEAAVIICIKNKEFEKASKILKKHMSKDPTTQKLRNDLLNIIREKNLAHPVIQNFSYETFQQKMLRFLESHLDDAEPYLLTMAKKALKSESAASSTGKEDKQPAPGPVEKPPREPARQLRNPPTTIGMMTLKAAFKTLSGAQDSEAAFAKLDQKDLVLPTQALPASPALKNKRPRKDENESSAPADGEGGSELQPKNKRMTISRLVLEEDSQSTEPSAGLNSSQEAASAPPSKPTVLNQPLPGEKNPKVPKGKWNSSNGVEEKETWVEEDELFQVQAAPDEDSTTNITKKQKWTVEESEWVKAGVQKYGEGNWAAISKNYPFVNRTAVMIKDRWRTMKRLGMN
notes: TRF2, gene NM_005652.4, codon-optimised
B3: RAP1, subunit of recombinant shelterin (natural protein, UniProt Q9NYB0 1-399, looked up)
chain: MAEAMDLGKDPNGPTHSSTLFVRDDGSSMSFYVRPSPAKRRLSTLILHGGGTVCRVQEPGAVLLAQPGEALAEASGDFISTQYILDCVERNERLELEAYRLGPASAADTGSEAKPGALAEGAAEPEPQRHAGRIAFTDADDVAILTYVKENARSPSSVTGNALWKAMEKSSLTQHSWQSLKDRYLKHLRGQEHKYLLGDAPVSPSSQKLKRKAEEDPEAADSGEPQNKRTPDLPEEEYVKEEIQENEEAVKKMLVEATREFEEVVVDESPPDFEIHITMCDDDPPTPEEDSETQPDEEEEEEEEKVSQPEVGAAIKIIRQLMEKFNLDLSTVTQAFLKNSGELEATSAFLASGQRADGYPIWSRQDDIDLQKDDEDTREALVKKFGAQNVARRIEFRKK
notes: RAP1 (TRF2-associated shelterin subunit), gene NM_018975.3, codon-optimised
B4: TPP1, subunit of recombinant shelterin (natural protein, UniProt Q96AP0 1-458, looked up)
chain: MAGSGRLVLRPWIRELILGSETPSSPRAGQLLEVLQDAEAAVAGPSHAPDTSDVGATLLVSDGTHSVRCLVTREALDTSDWEEKEFGFRGTEGRLLLLQDCGVHVQVAEGGAPAEFYLQVDRFSLLPTEQPRLRVPGCNQDLDVQKKLYDCLEEHLSESTSSNAGLSLSQLLDEMREDQEHQGALVCLAESCLTLEGPCTAPPVTHWAASRCKATGEAVYTVPSSMLCISENDQLILSSLGPCQRTQGPELPPPDPALQDLSLTLIASPPSSPSSSGTPALPGHMSSEESGTSISLLPALSLAAPDPGQRSSSQPSPAICSAPATLTPRSPHASRTPSSPLQSCTPSLSPRSHVPSPHQALVTRPQKPSLEFKEFVGLPCKNRPPFPRTGATRGAQEPCSVWEPPKRHRDGSAFQYEYEPPCTSLCARVQAVRLPPQLMAWALHFLMDAQPGSEPTPM
notes: TPP1 (shelterin subunit), gene BC016904.1, codon-optimised
B5: POT1, subunit of recombinant shelterin (natural protein, UniProt Q9NUX5-1 1-634, looked up)
chain: MSLVPATNYIYTPLNQLKGGTIVNVYGVVKFFKPPYLSKGTDYCSVVTIVDQTNVKLTCLLFSGNYEALPIIYKNGDIVRFHRLKIQVYKKETQGITSSGFASLTFEGTLGAPIIPRTSSKYFNFTTEDHKMVEALRVWASTHMSPSWTLLKLCDVQPMQYFDLTCQLLGKAEVDGASFLLKVWDGTRTPFPSWRVLIQDLVLEGDLSHIHRLQNLTIDILVYDNHVHVARSLKVGSFLRIYSLHTKLQSMNSENQTMLSLEFHLHGGTSYGRGIRVLPESNSDVDQLKKDLESANLTANQHSDVICQSEPDDSFPSSGSVSLYEVERCQQLSATILTDHQYLERTPLCAILKQKAPQQYRIRAKLRSYKPRRLFQSVKLHCPKCHLLQEVPHEGDLDIIFQDGATKTPDVKLQNTSLYDSKIWTTKNQKGRKVAVHFVKNNGILPLSNECLLLIEGGTLSEICKLSNKFNSVIPVRSGHEDLELLDLSAPFLIQGTIHHYGCKQCSSLRSIQNLNSLVDKTSWIPSSVAEALGIVPLQYVFVMTFTLDDGTGVLEAYLMDSDKFFQIPASEVLMDDDLQKSVDMIMDMFCPPGIKIDAYPWLECFIKSYNVTNGTDNQICYQIFDTTVAEDVI
notes: POT1 (shelterin subunit), gene NM_015450, codon-optimised

The binders below were run against T1, (StrepII)2-TEV-tagged TIN2, subunit of recombinant shelterin (assay: co-purification (StrepTrap affinity, then SEC); six shelterin subunits co-expressed in Sf9 from one construct; captured by (StrepII)2-TIN2 on StrepTrap, eluted with desthiobiotin, several rounds of Superose 6 Increase SEC; 50 mM HEPES pH 8.0, 300 mM NaCl).

binding, binds:
B1
B2
B3
B4
B5

The binders below were run against T1, (StrepII)2-TEV-tagged TIN2, subunit of recombinant shelterin (assay: cross-linking; SEC-purified shelterin 0.9 µM with 0-300 µM compound 40 or control compound 60, 0.075% glutaraldehyde 25 min, SDS-PAGE and Western blots for TRF1, TRF2 and TIN2; both purified).

binding, binds:
B1
B2
